20 molecules from PubChem BioAssay AID328 (DTP/NCI, 2004) can be followed below.

The subject of the test is BDF1 mice, P388 leukemia ip, median survival T/C. As to the kind of experiment: NCI In Vivo Anticancer Drug Screen. Data for tumor model P388 Leukemia (intraperitoneal) in B6D2F1 (BDF1) mice. The following applies: T/C endpoint: median survival time, higher T/C = longer survival. The procedure: The antitumor activity of compounds was measured in mice bearing transplantable tumors. Survival or tumor size were measured and the results are expressed as the measurement made in the treated group (T) divided by the measurement made in the vehicle treated control group (C). The tumor model used in this assay is P388 Leukemia (intraperitoneal) in B6D2F1 (BDF1) mice

[1] abbreviates: dose: 100.0 mg/kg/injection, schedule: Q01DX009 (ip), vehicle: Klucel (hydroxypropylcellulose) (HPC).
Setting [2] is: dose: 400.0 mg/kg/injection, schedule: Q04DX003 (ip), vehicle: Klucel (hydroxypropylcellulose) (HPC).

The list shows only some results of the screen, not a fair sample: it gathers tests that were run many times, whatever their T/C, doses with no T/C, and many T/C values between a quarter and a half above the control. Further doses and runs are listed elsewhere. T/C: endpoint of the treated group in % of that of the vehicle group. Some doses have a count of surviving animals in place of a T/C: the source files T/C as zero there, which appears to mark a toxic dose or a test without result, not a measured value. Some doses without a T/C left all or most animals alive at the check, yet need not have been tolerated: the source hardly ever lists a survival T/C far under the control, and the zero likely stands for such cases as well. Counts of survivors are from the toxicity check (mostly the fifth day) where no day follows; animals may have died later. Schedule codes are those of the source, read here as Q, the interval in days (D) or hours (H), X, the number of doses. Some entries hold several experiments; their values stand side by side, smallest first. Where survival is the endpoint, this PubChem deposit counts one and a half times the control or more as active, and values a quarter to a half above the control carry no call in these data; other NCI protocols may use other cut-offs. Some T/C values carry the count of animals alive at the toxicity check (mostly the fifth day); without a count, all were alive then.

As for `CCC(=O)O[C@H]1CC(=O)N(C)c2cc(cc(OC)c2Cl)C/C(C)=C/C=C[C@@H](OC)[C@@]2(O)C[C@H](OC(=O)N2)[C@@H](C)[C@H]2O[C@@]12C`, the T/C was 129 % of control (dose: 1.8 micrograms/kg/injection, schedule: Q01DX009 (ip), vehicle: saline + alcohol); 131 % of control (dose: 3.1 micrograms/kg/injection, schedule: Q01DX009 (ip), vehicle: saline + alcohol); 140 % of control (dose: 6.2 micrograms/kg/injection, schedule: Q01DX009 (ip), vehicle: saline + alcohol). Besides, the survivor count runs as follows: (dose: 100.0 micrograms/kg/injection, schedule: Q01DX009 (ip), vehicle: saline + alcohol) 4 of 4; (dose: 200.0 micrograms/kg/injection, schedule: Q01DX009 (ip), vehicle: saline + alcohol) 2 of 4.
In the case of `CCCCOc1ccc(C(=O)NN)cc1`, the survivor count (dose: 200.0 mg/kg/injection, schedule: Q01DX009 (ip), vehicle: saline with Tween-80) is given as 4 of 6.
For `CC(C)=CCNc1ncnc2nc[nH]c12`, the survivor count (dose: 40.0 mg/kg/injection, schedule: Q01DX009 (ip), vehicle: saline with Tween-80) is on record as 6 of 6.
Regarding `Cc1ccc2c(c1)=N/C(=N\c1nc(O)c(O)[nH]1)N=2`, the T/C under setting [1] is 127 % of control. Besides, the survivor count (dose: 210.0 mg/kg/injection, schedule: Q01DX009 (ip), vehicle: Klucel (hydroxypropylcellulose) (HPC)) is 0 of 6.
On to `COc1ccc(C(=O)OCCN(CCN(CCOC(=O)c2ccc(OC)cc2)C(=O)c2ccc(OC)cc2)C(=O)c2ccc(OC)cc2)cc1`, for which the survivor count was 6 of 6 (dose: 25.0 mg/kg/injection, schedule: Q01DX009 (ip), vehicle: Klucel (hydroxypropylcellulose) (HPC)); 5 of 6 (dose: 50.0 mg/kg/injection, schedule: Q01DX009 (ip), vehicle: Klucel (hydroxypropylcellulose) (HPC)); 5 of 6 under setting [1]; 6 of 6 (dose: 200.0 mg/kg/injection, schedule: Q01DX009 (ip), vehicle: Klucel (hydroxypropylcellulose) (HPC)); 5 of 6 under setting [2].
For the molecule `O=C(O)c1ccccc1O.O=C(O)c1ccccc1O.[O]=[V]`, the survivor count is given as 0 of 6 (dose: 32.0 mg/kg/injection, schedule: Q01DX010 (ip), vehicle: carboxymethylcellulose (CMC)) and 0 of 6 (dose: 64.0 mg/kg/injection, schedule: Q01DX010 (ip), vehicle: carboxymethylcellulose (CMC)).
Consider `O/C(=C/C(=S)S)c1cccs1`, for which the survivor count runs as follows: (dose: 12.5 mg/kg/injection, schedule: Q04DX003 (ip), vehicle: water) 4 of 6; (dose: 25.0 mg/kg/injection, schedule: Q04DX003 (ip), vehicle: water) 1 of 6; (dose: 50.0 mg/kg/injection, schedule: Q04DX003 (ip), vehicle: water) 0 of 6.
Take `NC(=O)N(CCCl)N=O`: where the note is “dose: 2.0 mg/kg/injection, schedule: Q01DX010 (ip), vehicle: saline”, the T/C is 131 % of control. For the same molecule, the survivor count is 6 of 6 (dose: 5.0 mg/kg/injection, schedule: Q01DX010 (ip), vehicle: saline); 2 of 6 (dose: 10.0 mg/kg/injection, schedule: Q01DX010 (ip), vehicle: saline); 0 of 6 and 2 of 6 (dose: 20.0 mg/kg/injection, schedule: Q01DX010 (ip), vehicle: saline).
Take `COc1ccc(NC(=O)N(CCCl)N=O)cc1OC`: the T/C (dose: 1.0 mg/kg/injection, schedule: Q04DX003 (ip), vehicle: saline with Tween-80) was 137 % of control.
Regarding `O=C(NCc1cc(CNC(=O)c2cccc(O)c2O)cc(CNC(=O)c2cccc(O)c2O)c1)c1cccc(O)c1O`, the survivor count is 2 of 5 (dose: 12.5 mg/kg/injection, schedule: Q01DX005 (ip), vehicle: saline with Tween-80); 2 of 5 (dose: 25.0 mg/kg/injection, schedule: Q01DX005 (ip), vehicle: saline with Tween-80); 3 of 5 (dose: 50.0 mg/kg/injection, schedule: Q01DX005 (ip), vehicle: saline with Tween-80).
With `O=C(O)C1CCC[N-]C1.O=C(O)C1CCC[N-]C1.O=C(O)C1CCC[N-]C1.O=C(O)C1CCC[N-]C1.[Cl][Rh][Cl]` (stereo not given), the survivor count was 4 of 6 (dose: 80.0 mg/kg/injection, schedule: Q01DX009 (ip), vehicle: saline); 6 of 6 (dose: 200.0 mg/kg/injection, schedule: Q01DX009 (ip), vehicle: saline); 4 of 6 (dose: 400.0 mg/kg/injection, schedule: Q01DX009 (ip), vehicle: saline).
With `CCOP(=O)(OCC)SCSC(C)C`, the survivor count runs as follows: (dose: 0.39 mg/kg/injection, schedule: Q01DX009 (ip), vehicle: Klucel (hydroxypropylcellulose) (HPC)) 0 of 6; (dose: 0.78 mg/kg/injection, schedule: Q01DX009 (ip), vehicle: Klucel (hydroxypropylcellulose) (HPC)) 0 of 6; (dose: 6.25 mg/kg/injection, schedule: Q01DX009 (ip), vehicle: Klucel (hydroxypropylcellulose) (HPC)) 2 of 6; (dose: 12.5 mg/kg/injection, schedule: Q01DX009 (ip), vehicle: Klucel (hydroxypropylcellulose) (HPC)) 0 of 6.
As for `CN(C)CCCNC(=O)Nc1ccccc1`, the survivor count under setting [2] is 0 of 6.
Consider `Cc1cc(C)c(CCO)c(C)c1`, for which the survivor count was 6 of 6 (dose: 0.37 mg/kg/injection, schedule: Q01DX009 (ip), vehicle: DMSO); 6 of 6 (dose: 0.75 mg/kg/injection, schedule: Q01DX009 (ip), vehicle: DMSO); 6 of 6 (dose: 1.5 mg/kg/injection, schedule: Q01DX009 (ip), vehicle: DMSO); 6 of 6 (dose: 3.0 mg/kg/injection, schedule: Q01DX009 (ip), vehicle: DMSO); 6 of 6 (dose: 6.0 mg/kg/injection, schedule: Q01DX009 (ip), vehicle: DMSO); 6 of 6 (dose: 100.0 mg/kg/injection, schedule: Q04DX003 (ip), vehicle: DMSO).
Turning to `Cn1c(=O)c2c(c3ccccc31)Oc1oc3ccc4ccccc4c3c(=O)c1C2`, where the note is “dose: 100.0 mg/kg/injection, schedule: Q01DX009 (ip), vehicle: saline with Tween-80”, the survivor count is reported as 5 of 6.
For `O=C(O)CCN1C(=O)c2ccccc2C1=O`, the survivor count (dose: 400.0 mg/kg/injection, schedule: Q01DX009 (ip), vehicle: saline with Tween-80) was 4 of 6.
`C[N+](C)(Cn1ncc2cc([N+](=O)[O-])ccc21)Cn1ncc2cc([N+](=O)[O-])ccc21`: where the note is “dose: 400.0 mg/kg/injection, schedule: Q04DX003 (ip), vehicle: saline with Tween-80”, the survivor count is listed as 2 of 6.
For `COC(=O)[C@@]12OC[C@]34[C@H]([C@@H](O)[C@@H]1O)[C@@]1(C)CC(=O)C(O)=C(C)[C@@H]1C[C@H]3OC(=O)[C@H](OC(=O)c1ccccc1)[C@@H]24`, the survivor count (dose: 15.0 micrograms/kg/injection, schedule: Q01DX009 (ip), vehicle: saline + alcohol) is given as 6 of 6. Moreover, the T/C was 140 % of control (dose: 62.0 micrograms/kg/injection, schedule: Q01DX009 (ip), vehicle: saline + alcohol); 135 % of control (dose: 125.0 micrograms/kg/injection, schedule: Q01DX009 (ip), vehicle: saline + alcohol); 125 % of control (dose: 250.0 micrograms/kg/injection, schedule: Q01DX009 (ip), vehicle: saline + alcohol); 135 % of control (dose: 500.0 micrograms/kg/injection, schedule: Q01DX009 (ip), vehicle: saline + alcohol); 145 % of control (dose: 1000.0 micrograms/kg/injection, schedule: Q01DX009 (ip), vehicle: saline + alcohol); 140 % of control (dose: 4000.0 micrograms/kg/injection, schedule: Q01DX009 (ip), vehicle: saline + alcohol).
Turning to `Cc1cc2[nH]c(=O)c(=O)[nH]c2cc1C`, the survivor count is 6 of 6 (dose: 150.0 mg/kg/injection, schedule: Q01DX009 (ip), vehicle: Klucel (hydroxypropylcellulose) (HPC)) and 3 of 6 (dose: 300.0 mg/kg/injection, schedule: Q01DX009 (ip), vehicle: Klucel (hydroxypropylcellulose) (HPC)).
Consider `[Cu+2].[O-]c1ccc(Br)c2cccnc12.[O-]c1ccc(Br)c2cccnc12`, for which the survivor count (dose: 33.0 mg/kg/injection, schedule: Q04DX003 (ip), vehicle: saline with Tween-80) is given as 6 of 6. Under “dose: 50.0 mg/kg/injection, schedule: Q04DX003 (ip), vehicle: saline with Tween-80”, the T/C is 127 % of control [5 of 6 alive].
